From US12577556B2, “Perturbation beads for use in assays” (Zafrens Inc., priority 2022, dated 2026)
At least one compound was matched to its structure with a doubt left.

Test system: Jurkat cells engineered to have enhanced green fluorescent protein (eGFP) reporter fused to nuclear factor of activated T cells (NFAT) transcription factor
Assay: NFAT-eGFP reporter assay in Jurkat cells with compounds photoreleased from labeled perturbation beads
Assay type: cell-based
Details: compounds released from beads by 10 seconds of 365 nm light, 60 mW/cm^2
Protocol: Individual beads were added to wells of a multiwell assay device. Jurkat cells engineered to have enhanced green fluorescent protein (eGFP) reporter fused to nuclear factor of activated T cells (NFAT) transcription factor were added to each well (cells purchased from BPS Bioscience, Catalog #78384). The compounds were released from the beads by exposure to 10 seconds of 365 nm wavelength light having illumination power of 60 mW/cm^2 and allowed to interact with the cells in the respective wells. […] This exemplifies using optically detectible labels on the bead to code for perturbation compounds and/or building blocks and corresponding that visible code to a cell perturbation.

Cc1nc(Nc2ncc(C(=O)Nc3c(C)cccc3Cl)s2)cc(N2CCN(CCO)CC2)n1 [Dasatinib, 2-(4-(6-((5-((2-chloro-6-methylphenyl)carbamoyl)thiazol-2-yl)amino)-2-methylpyrimidim-4-yl)piperazin-1-yl)acetic acid]
change in NFAT-eGFP expression levels: almost complete downregulation
